Measured data: PubChem BioAssay AID1053208 (Peter MacCallum Cancer Centre, 2014)
The whole screen tested about 17,000 reagents; below is a part drawn at random. Of all reagents, 788 (4.7%) are marked active. 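Calls rest on z-score classes alone; an extra cut-off of viability at most 70% of control was not applied to them.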 Entries without a mark were called inactive. No sequences are given here.

Aim: 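Find knock-downs that sensitise mouse osteosarcoma cells to doxorubicin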 (primary screen)
Cell system: mouse osteosarcoma cells, early-passage culture from an engineered mouse model of fibroblastic bone tumour
Reagents: siRNA pool against mouse genes, 40 nM
Timing: about 120 h (48 h before drug, then 72 h with drug)
Conditions: doxorubicin 100 nM for 72 h, roughly 30-40% inhibitory dose
Measured: 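Luminescent ATP signal taken as viability with or without 100 nM doxorubicin for 72 h; mean of two wells set against non-targeting siRNA and turned into robust z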
Reading the numbers: viability z-score with doxorubicin and doxorubicin viability vs non-targeting: higher = more viable cells under doxorubicin; viability z-score without drug: higher = more viable cells with knock-down alone; z-score of drug to no-drug ratio: higher = less drug sensitisation by knock-down
Hit rule: 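Called active if knock-down leaves viability unchanged without drug (z within -2 to 2) but lowers it with doxorubicin (z at or under -2)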

| gene knocked down | combined z-score class | viability z-score with doxorubicin | viability z-score without drug | z-score of drug to no-drug ratio | doxorubicin viability vs non-targeting |
| --- | --- | --- | --- | --- | --- |
| Taf1d (GeneID 75316) | no change with or without drug | 0.45 | 0.51 | 0.22 | 0.98 |
| Cybb (GeneID 13058) | no change with or without drug | 0.22 | -1.85 | 1.8 | 0.96 |
| Or8b41 (GeneID 258474) | no change with or without drug | 0.79 | 1.52 | -0.11 | 1.01 |
| Arl14ep (GeneID 212772) | no change with or without drug | 0.34 | 1.18 | -0.34 | 0.97 |
| Lrrc47 (GeneID 72946) | no change with or without drug | -0.9 | -0.17 | -0.79 | 0.86 |
| Or5m10b (GeneID 258582) | low cell count without drug only | -0.9 | -2.53 | 1.01 | 0.86 |
| Slc33a1 (GeneID 11416) | low cell count without drug only | -0.79 | -2.36 | 1.01 | 0.87 |
| Trpm4 (GeneID 68667) | no change with or without drug | 0.34 | 1.18 | -0.34 | 0.97 |
| Lypd1 (GeneID 72585) | no change with or without drug | 0.67 | 1.18 | 0 | 1 |
| Slc22a19 (GeneID 207151) | no change with or without drug | -0.9 | 0.17 | -0.9 | 0.86 |
| Ankrd55 (GeneID 77318) | no change with or without drug | -0.11 | -0.17 | 0.11 | 0.93 |
| Krtap16-3 (GeneID 71369) | no change with or without drug | -1.8 | -1.18 | -1.01 | 0.78 |
| Hif1a (GeneID 15251) | no change with or without drug | 1.8 | 1.18 | 1.12 | 1.1 |
| Gfral (GeneID 404194) | no change with or without drug | 1.35 | 0.34 | 1.24 | 1.06 |
| Copz2 (GeneID 56358) | no change with or without drug | -0.67 | -0.34 | -0.34 | 0.88 |
| Trps1 (GeneID 83925) | no change with or without drug | -0.45 | 0.51 | -0.67 | 0.9 |
| Ndufc2 (GeneID 68197) | no change with or without drug | 0.11 | -0.51 | 0.56 | 0.95 |
| B3gat2 (GeneID 280645) | no change with or without drug | -0.22 | 0.84 | -0.67 | 0.92 |
| Ppp1r12c (GeneID 232807) | no change with or without drug | 0.22 | 0.17 | 0.22 | 0.96 |
| Or7g27 (GeneID 258249) | no change with or without drug | 0.45 | -0.51 | 1.01 | 0.98 |
| Lhcgr (GeneID 16867) | no change with or without drug | 1.8 | 1.01 | 1.24 | 1.1 |
| Cimip2c (GeneID 75434) | high cell count without drug only | 1.35 | 2.19 | 0 | 1.06 |
| Pou3f3 (GeneID 18993) | no change with or without drug | 0.45 | 1.85 | -0.67 | 0.98 |
| Mrpl28 (GeneID 68611) | no change with or without drug | 0.22 | -0.17 | 0.45 | 0.96 |
| Mast3 (GeneID 546071) | no change with or without drug | 1.12 | 0.17 | 1.12 | 1.04 |
| Nipal2 (GeneID 223473) | no change with or without drug | -0.9 | 0 | -0.79 | 0.86 |
| Defa-rs10 (GeneID 13219) | no change with or without drug | -0.79 | -0.67 | -0.22 | 0.87 |
| Or2y10 (GeneID 404336) | no change with or without drug | -0.45 | -1.35 | 0.56 | 0.9 |
| D630003M21Rik (GeneID 228846) | high cell count without drug only | 0.45 | 2.19 | -0.79 | 0.98 |
| Usp5 (GeneID 22225) | low cell count with and without drug | -2.47 | -2.02 | -1.24 | 0.72 |
| Tbce (GeneID 70430) | no change with or without drug | 0.67 | 1.18 | 0 | 1 |
| Lsamp (GeneID 268890) | no change with or without drug | 0 | 0 | 0.11 | 0.94 |
| Sh3bgr (GeneID 50795) | no change with or without drug | -0.67 | -1.69 | 0.67 | 0.88 |
| Otc (GeneID 18416) | no change with or without drug | -0.22 | 0.51 | -0.45 | 0.92 |
| Dapk1 (GeneID 69635) | no change with or without drug | -0.67 | -1.18 | 0.22 | 0.88 |
| Or4n5 (GeneID 258487) | no change with or without drug | -0.45 | 0.51 | -0.67 | 0.9 |
| Glp1r (GeneID 14652) | no change with or without drug | -0.9 | 0.51 | -1.12 | 0.86 |
| Ank (GeneID 11732) | no change with or without drug | 0 | -1.85 | 1.57 | 0.94 |
| Ranbp17 (GeneID 66011) | no change with or without drug | 0.45 | -0.17 | 0.67 | 0.98 |
| Ppp2r5e (GeneID 26932) | no change with or without drug | -0.79 | 0.84 | -1.24 | 0.87 |
| Hsd17b13 (GeneID 243168) | no change with or without drug | 0.22 | -0.17 | 0.45 | 0.96 |
| Ppp6r1 (GeneID 243819) | no change with or without drug | 1.46 | 1.69 | 0.45 | 1.07 |
| Igf2bp3 (GeneID 140488) | no change with or without drug | -0.22 | 0 | -0.11 | 0.92 |
| Hs3st3a1 (GeneID 15478) | no change with or without drug | 0.45 | 0.84 | 0 | 0.98 |
| Ube2q1 (GeneID 70093) | no change with or without drug | -1.57 | 0 | -1.57 | 0.8 |
| Efcab7 (GeneID 230500) | no change with or without drug | 1.24 | 0.51 | 1.01 | 1.05 |
| Parp12 (GeneID 243771) | no change with or without drug | 0.67 | -0.34 | 1.12 | 1 |
| Uqcr11 (GeneID 66594) | high cell count with doxorubicin only | 2.59 | 1.01 | 2.02 | 1.17 |
| Bbox1 (GeneID 170442) | no change with or without drug | 1.8 | 0.51 | 1.57 | 1.1 |
| Ksr2 (GeneID 333050) | no change with or without drug | 1.12 | 1.01 | 0.56 | 1.04 |
